# Laboratory results reported in paper PMC7819943, “Rice protein-binding microarrays: a tool to detect cis-acting elements near promoter regions in rice”.
# By UniProt entry, the sequences of proteins in these tests, tags left out.
# UniProt Q0JBA9, entry or part of it: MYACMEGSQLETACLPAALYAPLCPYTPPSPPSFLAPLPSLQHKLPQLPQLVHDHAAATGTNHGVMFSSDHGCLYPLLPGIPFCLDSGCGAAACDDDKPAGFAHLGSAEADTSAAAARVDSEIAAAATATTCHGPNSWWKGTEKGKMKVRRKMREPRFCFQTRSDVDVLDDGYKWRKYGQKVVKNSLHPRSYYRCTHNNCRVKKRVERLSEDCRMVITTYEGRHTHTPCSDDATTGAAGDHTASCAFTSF
# The other results are listed elsewhere or left out.
# Target: OsWRKY34 (Oryza sativa, UniProt Q0JBA9 1-250)
# Assay: protein-binding microarray (RPBM); PBS, 2% BSA, 51.3 ng/ul salmon testes DNA, 50 uM zinc acetate, 200 nM TF, 25 C, 1 h; high values mean tight binding
# Conditions: protein: recombinant; tags: N-terminal polyhistidine and DsRed monomer fusion (pET32a); label: CyDye5-dUTP incorporated in the synthesized complementary strand; 3' TTTTT single-stranded linker to array surface; dsDNA, one strand shown
# In short: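 Binding signal is defined as the fluorescence intensity of each feature in arbitrary units, read on an Axon 4000B scanner. Transcription factors with N-terminal polyhistidine and DsRed fusions came from E. coli BL21-CodonPlus and were purified on Ni–NTA. They were incubated at 200 nM for 1 h at 25 °C on a custom Agilent array that had been made double-stranded with Cy5-dUTP, with 50 µM zinc acetate present, and the array was washed.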
row,Sequence,binding signal
1,GAACTTCCCTCACATTTCTGCCTTGAATTTGCATGTTTGACGGAGTCACCTAGTGCAG,9550 fluorescence intensity (a.u.)
2,ATAATTTCTCAGACGCCCTCCGCTGATCTCCAGTTCTCTACGGAGTCACCTAGTGCAG,8820 fluorescence intensity (a.u.)
3,AAGTCATTCTAGCATTTCACACATTCATTTTGATGTTAATCGGAGTCACCTAGTGCAG,9830 fluorescence intensity (a.u.)
4,CTCATTGCCTCTTGCTGCCCCTGCTTCATTCTAATCCAATCGGAGTCACCTAGTGCAG,9480 fluorescence intensity (a.u.)
5,CCTGCTTCCCGGCCTCTTGTTCTGCTTGCTTGCCTGCCACCGGAGTCACCTAGTGCAG,10400 fluorescence intensity (a.u.)
6,CCGCCGCCGCCTCTGCTCCATCGATTCCCGGGTGCACTCGCGGAGTCACCTAGTGCAG,8420 fluorescence intensity (a.u.)
7,TCCACGCGCTCTGCTGCCTCGTCTCGCTCTTCCTCGGGTTCGGAGTCACCTAGTGCAG,9910 fluorescence intensity (a.u.)
8,GTCTTCTCCGCCGCCGCCGCCGCCGCCGCCGTCCGTCCGTCGGAGTCACCTAGTGCAG,9360 fluorescence intensity (a.u.)
9,TCCTCCTCCTTGCCCTCTAGCTACTAGCTCACACTGTCACCGGAGTCACCTAGTGCAG,8130 fluorescence intensity (a.u.)
10,GGAGTTTGAAAGGGTGGGAGAGAGCAGATAAGGGATAATTCGGAGTCACCTAGTGCAG,8480 fluorescence intensity (a.u.)
11,TAAATCTTTCTCAACTTTTCCTTAATTTTCTCGTATTTTTCGGAGTCACCTAGTGCAG,8500 fluorescence intensity (a.u.)
12,AAGTTTTTGACCTACAGTAACATCATTTTTCGCTTTCTATCGGAGTCACCTAGTGCAG,9180 fluorescence intensity (a.u.)
13,ACCATCCGATTTCCGCGCCCGTGATTTCACACGTCTCGCGCGGAGTCACCTAGTGCAG,9200 fluorescence intensity (a.u.)
14,ATACGACCATGAAGCCTGCGTTCTTCCTCTTGCGCCTCATCGGAGTCACCTAGTGCAG,8250 fluorescence intensity (a.u.)
15,CCTCTCTGACCCTATTTCGTTTAGGTGAGTTCACGGTGTTCGGAGTCACCTAGTGCAG,10700 fluorescence intensity (a.u.)
16,AGGCCATAGAATATACTAACAGACTGCCTATGTTTTGATTCGGAGTCACCTAGTGCAG,8650 fluorescence intensity (a.u.)
17,TTTTCCGATCATTTCCGAGTGATTTCATCCCTACCTGCATCGGAGTCACCTAGTGCAG,10800 fluorescence intensity (a.u.)
18,CCCTTTTTCTTTCACATTTTACGGTGCGGTCTTGATTCGTCGGAGTCACCTAGTGCAG,9200 fluorescence intensity (a.u.)
19,CCCACCACCAACTTACCCAGGAAACACCCGTCCGATTCACCGGAGTCACCTAGTGCAG,8590 fluorescence intensity (a.u.)
20,AGATTTTCTGTCTTTTTGATCCGTCTTTAGTGGAGCTTTTCGGAGTCACCTAGTGCAG,8420 fluorescence intensity (a.u.)
21,GCCTGTTCACTTTGATGCTATTTTCAACCTTACCAAATTTCGGAGTCACCTAGTGCAG,12500 fluorescence intensity (a.u.)

# Looked up one by one from the list above, 4 records:
row,Sequence,binding signal
3,AAGTCATTCTAGCATTTCACACATTCATTTTGATGTTAATCGGAGTCACCTAGTGCAG,9830 fluorescence intensity (a.u.)
6,CCGCCGCCGCCTCTGCTCCATCGATTCCCGGGTGCACTCGCGGAGTCACCTAGTGCAG,8420 fluorescence intensity (a.u.)
19,CCCACCACCAACTTACCCAGGAAACACCCGTCCGATTCACCGGAGTCACCTAGTGCAG,8590 fluorescence intensity (a.u.)
18,CCCTTTTTCTTTCACATTTTACGGTGCGGTCTTGATTCGTCGGAGTCACCTAGTGCAG,9200 fluorescence intensity (a.u.)

# The listing continues:

row,Sequence,binding signal
1,ACGCCGTTGACTTTTTTAAACATGTTTGACTGTTCGTCTTCGGAGTCACCTAGTGCAG,38200 fluorescence intensity (a.u.)
2,CTTTAACCAACGTATTCCTCTCTATCTTTTTTTTCTCCTCCGGAGTCACCTAGTGCAG,8260 fluorescence intensity (a.u.)
3,GTACTGGCTTGGCTGGGTCGGGCTCGGGCTGGGCCATGAACGGAGTCACCTAGTGCAG,8340 fluorescence intensity (a.u.)
4,ACTACTCATAGCCAGTACTGTTATTACTGTACATGTATAACGGAGTCACCTAGTGCAG,8390 fluorescence intensity (a.u.)
5,CATACACCTTCCGTCCTAAATTATACGGCGCCTATTTTTTCGGAGTCACCTAGTGCAG,8650 fluorescence intensity (a.u.)
6,GAGGAGAGAGAGAGAGAGTGGTGGTGGTGGTGGTGAGATGCGGAGTCACCTAGTGCAG,8460 fluorescence intensity (a.u.)
7,TACTCACGCACGAATTCCTAGGCCATATACTAGTACACATCGGAGTCACCTAGTGCAG,10900 fluorescence intensity (a.u.)
8,GGATGGGTGAGGGGATCGGCGAAGGCGGCGGGGTGGCGAACGGAGTCACCTAGTGCAG,12400 fluorescence intensity (a.u.)
9,ATGGATGTGGAGACTTGGGTCATATGTTTCTTTTCTATTTCGGAGTCACCTAGTGCAG,8730 fluorescence intensity (a.u.)
10,CCTTCCCTTTCTTTATTCTGAAGCTTTTATCTTCTTCTCACGGAGTCACCTAGTGCAG,9700 fluorescence intensity (a.u.)
11,TCCTTTCACGTCTAGCTCTCAACCTGCAGGATGTAACGACCGGAGTCACCTAGTGCAG,8800 fluorescence intensity (a.u.)
12,TGTTGCCGCAGACCTTGACGCCCTCGTCGGCGGCGCGGACCGGAGTCACCTAGTGCAG,8350 fluorescence intensity (a.u.)
13,TTACACGCCTAATCATCGAAAACCTAATCTTATGCTTTCTCGGAGTCACCTAGTGCAG,8790 fluorescence intensity (a.u.)
14,CTCTGCTACCTTTCGGCAACCTCCACCATTAAGGCCATCGCGGAGTCACCTAGTGCAG,9280 fluorescence intensity (a.u.)
15,TACCAGCAGATTATTACGGACGCATTTTTCTAACCGTTGACGGAGTCACCTAGTGCAG,10200 fluorescence intensity (a.u.)
16,CACGCCACGCCACGCCTCACCTCACCACCACCAGGCACCACGGAGTCACCTAGTGCAG,8860 fluorescence intensity (a.u.)
17,TAAACCCTTCTCACAAAACTACCGCTCAACGTCATCAACACGGAGTCACCTAGTGCAG,10300 fluorescence intensity (a.u.)
18,TCAGCTCTGTTTCTCTTCGTCCCCAACTCCGATCTCGTCTCGGAGTCACCTAGTGCAG,10400 fluorescence intensity (a.u.)
19,CAATTCCCAGCTGCTTTCGCAACCTCTCGCGATCTGCCTCCGGAGTCACCTAGTGCAG,10000 fluorescence intensity (a.u.)
20,CTATTTTGGCCACTCGGGAGATGGTGTTGTTTCTGAATTTCGGAGTCACCTAGTGCAG,8180 fluorescence intensity (a.u.)
21,TTCACCTTCTATGCCTTCTGTGAAAATTAACTGGCTCTCACGGAGTCACCTAGTGCAG,8250 fluorescence intensity (a.u.)

# Exported bar-delimited: entries from further up
row | Sequence | binding signal
4 | ACTACTCATAGCCAGTACTGTTATTACTGTACATGTATAACGGAGTCACCTAGTGCAG | 8390 fluorescence intensity (a.u.)
5 | CATACACCTTCCGTCCTAAATTATACGGCGCCTATTTTTTCGGAGTCACCTAGTGCAG | 8650 fluorescence intensity (a.u.)
6 | GAGGAGAGAGAGAGAGAGTGGTGGTGGTGGTGGTGAGATGCGGAGTCACCTAGTGCAG | 8460 fluorescence intensity (a.u.)

# Later entries:

row,Sequence,binding signal
1,GTTACTCCTTTGCCATCTCCATCTCCTGCCTACATGAACTCGGAGTCACCTAGTGCAG,8030 fluorescence intensity (a.u.)
2,CATCTTCCATCGTCACTCACCGACACCATCCGTAGGTCTTCGGAGTCACCTAGTGCAG,9800 fluorescence intensity (a.u.)
3,GCTACCTATTTTTACATTCAGGTTAGGGGACCTTGCAGGGCGGAGTCACCTAGTGCAG,8810 fluorescence intensity (a.u.)
4,TTCTTCTTCTTCTTCTCCACCTGCGATTGATTCGGCCTCTCGGAGTCACCTAGTGCAG,9300 fluorescence intensity (a.u.)
5,TTTCCTCATTTATTCACCTGTCACACCATCTTTCATCATACGGAGTCACCTAGTGCAG,9590 fluorescence intensity (a.u.)
6,CAGCTAGGTTTCCGCCTCTCTCACCATCTCCATCTCCATGCGGAGTCACCTAGTGCAG,8720 fluorescence intensity (a.u.)
7,ATAGTTTACACCGGTTTTGATTGTTAGAGGAGTTGATATACGGAGTCACCTAGTGCAG,10500 fluorescence intensity (a.u.)
8,CTTCCCATGGCTTTTACTCTCCACTCGAAATCTCGTAACACGGAGTCACCTAGTGCAG,11100 fluorescence intensity (a.u.)
9,GTTCCTTATCCGCATCATCCCCACCGCCGGCCACACACCTCGGAGTCACCTAGTGCAG,11900 fluorescence intensity (a.u.)
10,AAGTGCAGTGCCCTATATGCTTAGGTAGGAATTTGCTTTCCGGAGTCACCTAGTGCAG,8480 fluorescence intensity (a.u.)
11,ACGTCGCCCGTCTCCAGCCGCCTCATGAGCTCCGCCACCGCGGAGTCACCTAGTGCAG,9870 fluorescence intensity (a.u.)
12,TTTTAGATTTGACGTTTAGCCGTTTACCACTCATATATCACGGAGTCACCTAGTGCAG,9680 fluorescence intensity (a.u.)
13,GCACCTTCCCCGCCACGTGTTCCGCCACCGCTCTCAACTCCGGAGTCACCTAGTGCAG,8740 fluorescence intensity (a.u.)
14,TGACTTCTTCTTTCTCAATTCCCGCCACCCCGGCACGCCCCGGAGTCACCTAGTGCAG,10000 fluorescence intensity (a.u.)
15,ATCGTCTTCAACTGCGCGTCTACGCCATCAAGCTTCGGGTCGGAGTCACCTAGTGCAG,9420 fluorescence intensity (a.u.)
16,AAATCCTACGTTTTTCCTATTCCTACGTTTTCTCAATCCTCGGAGTCACCTAGTGCAG,8530 fluorescence intensity (a.u.)
17,GAACATTTGAGTCATCTACTATCTTGCAATATCACTCTTCCGGAGTCACCTAGTGCAG,9980 fluorescence intensity (a.u.)
18,TCCAATTTCCTAACACATCCTTCGATTGGAACATTTTTATCGGAGTCACCTAGTGCAG,9220 fluorescence intensity (a.u.)
19,TCACCCATGTTTCTGCCTACACATCTCTCTTCCACCTAGTCGGAGTCACCTAGTGCAG,10500 fluorescence intensity (a.u.)
20,ATTTCTTTTGGGGTTCTATTCCGCCTTATATCGGGCACATCGGAGTCACCTAGTGCAG,11200 fluorescence intensity (a.u.)
21,TTCTCCACCGCCGCCACCACCACCTCGCCTGGCCGGCCTCCGGAGTCACCTAGTGCAG,18000 fluorescence intensity (a.u.)

row,Sequence,binding signal
1,GGTGGTTGGTGGTAGGGTTTTAGCGCGGCAGGCGGAGATGCGGAGTCACCTAGTGCAG,10500 fluorescence intensity (a.u.)
2,ATCATTTAATTCCTGCGTTTTTCCTGCGATTCAATCAAACCGGAGTCACCTAGTGCAG,11300 fluorescence intensity (a.u.)
3,CTCGACTGTAACTGCGCTGGCCGCCTGGCCTCTTCAAGATCGGAGTCACCTAGTGCAG,11400 fluorescence intensity (a.u.)
4,ATTGATGATTTTATCTGGTTTGTTCAGCAATTTTGCAAGACGGAGTCACCTAGTGCAG,8990 fluorescence intensity (a.u.)
5,ATCTGATTCCTCTCGAGACGGCGGATCCGAGCAATCTCTCCGGAGTCACCTAGTGCAG,8600 fluorescence intensity (a.u.)
6,TCATCTTCACACCTCTCAATTAATTTATATTTCATTTCTCCGGAGTCACCTAGTGCAG,8750 fluorescence intensity (a.u.)
7,GGCGTCGGTGGTGGTGTGAATTGATAGAATTGATACGATGCGGAGTCACCTAGTGCAG,8930 fluorescence intensity (a.u.)
8,GCATCTAGTCCATAGGGAATTTAGTTCGTTTTGTAGTTGACGGAGTCACCTAGTGCAG,8260 fluorescence intensity (a.u.)
9,TCCCCGCTCACTCACCCAGCCGCTCCCTCGGCTCGGCAGCCGGAGTCACCTAGTGCAG,8650 fluorescence intensity (a.u.)
10,CGCCTACATCCCGCCGTCCAACGACTCCGGCCTCACGCGGCGGAGTCACCTAGTGCAG,8680 fluorescence intensity (a.u.)
11,CATACAGATATTCAAACATGGTGAAAAATTTTAGGGTGGGCGGAGTCACCTAGTGCAG,8120 fluorescence intensity (a.u.)
12,TTGCTTATCTAACTGTTCGTCTCACCTCACTGGTTTCTTCCGGAGTCACCTAGTGCAG,9950 fluorescence intensity (a.u.)
13,CGCAAACTTCTGGGTTTAATGTAACCGTCTCATCTTTGTCCGGAGTCACCTAGTGCAG,8900 fluorescence intensity (a.u.)
14,TAGTGATATGCTACCTCTACACCAAAATAAGTCTATTTTTCGGAGTCACCTAGTGCAG,8310 fluorescence intensity (a.u.)
15,TTTCCTTTGCTCTCCTCGCTCCTCTTATCATCTCCTCCTACGGAGTCACCTAGTGCAG,8780 fluorescence intensity (a.u.)
16,CGACCGTATTGGGGATTGGGACGGATGGGTGTGGGATACACGGAGTCACCTAGTGCAG,8570 fluorescence intensity (a.u.)
17,CCTGTTTCTGACAACACCGCTGTTCGTTCCGCTAGCGACACGGAGTCACCTAGTGCAG,9530 fluorescence intensity (a.u.)
18,AACAGCCTGCACTCGCACGTCCCGTCTTGCCTTGTCTCCGCGGAGTCACCTAGTGCAG,8800 fluorescence intensity (a.u.)
19,GCCGCCTGCCTCCTCGGCCGCGCGCTCACCTGCCGCTACCCGGAGTCACCTAGTGCAG,8450 fluorescence intensity (a.u.)
20,CCATTATTGGACGCATTCCGTCAGCATCAACTGCCTCATCCGGAGTCACCTAGTGCAG,9100 fluorescence intensity (a.u.)
21,AATTACTCAAATTTCTTCCTGCCCCAAAATTTGTCAGTCACGGAGTCACCTAGTGCAG,8180 fluorescence intensity (a.u.)
